Data: PubChem BioAssay AID1347076 (National Center for Advancing Translational Sciences (NCATS), 2019)
In all, about 400,000 compounds went through this assay and about 13,000 (3.2%) were called active. Inconclusive means that the source gave no clear call. Such entries were picked first, then a sample of the others. Calls come from the whole dose curve; as a rule, active = well fitted cell-killing curve with a large enough effect; inconclusive = small, poorly fitted or top-dose-only effect, or effect the other way; inactive = flat fitted curve, though single readings scatter. Potencies of inconclusive entries are doubtful fits and often do not repeat.

assay: qHTS assay for MDR1-selective chemotherapeutics: Primary screen using the drug-selected MDR subline cells KB-V1; conditions: KB-V1 MDR cells viability, CellTiter-Glo, 72 h; series mostly up to 46.1 µM; note: nearly all actives have a fitted effect of over 60% in size
In short: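 In this primary screen, KB-V1 cells overexpressing P-gp are incubated with library compounds (lowest to highest concentration) for 72 h at 37 degrees C before a luminescent ATP viability read.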
Potency is the fitted concentration of half-maximal effect.

For `CCN(Cc1ccccc1)C(c1cc2cc(C)ccc2[nH]c1=O)c1nnnn1CCOC` (stereo unspecified), which Potency is on record?
The Potency was active: 16.4 µM.

With `FC(F)Oc1ccccc1NC(=S)Nc1cccnc1` as the compound, how does the Potency read?
Its Potency is “inactive”.

Which Potency does the source give for `COc1ccccc1CNC(=S)Nc1cc(C)ccc1C` here?
The Potency was inconclusive: 32.6 µM [cytotoxic, single point].

With `CC(C)C(=O)Nc1c2c(nn1-c1ccc(F)cc1)CS(=O)(=O)C2` as the compound, how does the Potency read?
The Potency was “inactive”.

With `Cc1c(C(=O)N2CCCCC2)oc2ccc(S(=O)(=O)N3CC(C)CC(C)C3)cc12` (stereo unspecified) as the compound, how does the Potency read?
Its Potency is inconclusive: 29.1 µM [cytotoxic, single point].

With `Cc1cc(C)c2c(c1)cc(C)c1nnc(SCC(=O)N3CCCc4ccccc43)n12` as the compound, how does the Potency read?
Its Potency is inconclusive: 23.1 µM [cytotoxic, single point].

Which Potency does the source give for `CC(C)c1ccc(NC2CCCN(C(=O)c3cnsn3)C2)cc1` (stereo unspecified) here?
Its Potency is inconclusive: 18.4 µM [cytotoxic, single point].

Which Potency does the source give for `O=C(CCc1ccccc1O)N/N=C/c1ccc(Sc2cccc3cccnc23)o1` here?
Its Potency is inconclusive: 16.4 µM [cytotoxic, single point].

With `O=C1NCCCC1(c1ccccc1)c1ccccc1` as the compound, how does the Potency read?
Its Potency is “inactive”.

For `CN(/C(=N\S(=O)(=O)c1ccccc1)c1ccccc1)c1ccc(O)cc1`, which Potency is on record?
The Potency was “inactive”.

Which Potency does the source give for `CCCCc1c(C)c(C#N)c2nc3ccccc3n2c1NCCN(C)C` here?
The Potency was “inactive”.

With `CCC(CC)C(=O)Nc1ccc(C)cc1O` as the compound, how does the Potency read?
Its Potency is inconclusive: 29.1 µM [rising, single point].

For `CCOc1ccc(-c2nn(-c3ccccc3)cc2/C=C(\C#N)S(=O)(=O)c2ccccc2)cc1C`, which Potency is on record?
The Potency was inconclusive: 18.4 µM [cytotoxic, partial curve, poor fit].

Which Potency does the source give for `CS(=O)(=O)c1cccc(-c2csc(N3CCC(C(N)=O)CC3)n2)c1` here?
Its Potency is inconclusive: 29.1 µM [rising, single point].

With `O=C(NCCc1ccccc1)c1ccc(-c2ccc(F)cc2)o1` as the compound, how does the Potency read?
The Potency was “inactive”.

With `CCOC(=O)c1c(S(=O)(=O)NCC(=O)NCc2ccccc2Cl)c(C)n(C)c1C` as the compound, how does the Potency read?
Its Potency is inconclusive: 9.2 µM [cytotoxic, partial curve].

Which Potency does the source give for `CN(C)S(=O)(=O)c1cccc(NC(=O)CSc2nnnn2-c2ccccc2)c1` here?
The Potency was active: 10.3 µM.

For `C#CCN(C[C@H]1[C@H](OC(=O)NCc2ccccc2)[C@H](OC(=O)NCc2ccccc2)C[C@H]2C(=O)N(c3ccccc3)C(=O)[C@@H]12)S(=O)(=O)c1ccc(C)cc1`, which Potency is on record?
The Potency was “inactive”.

For `O=[N+]([O-])c1cccc(-c2ccc(C(=S)N3CCOCC3)o2)c1`, which Potency is on record?
The Potency was inconclusive: 29.1 µM [cytotoxic, single point].

With `O=C(NCCn1cc(SCc2ccccc2F)c2ccccc21)c1c(F)cccc1F` as the compound, how does the Potency read?
The Potency was “inactive”.

Which Potency does the source give for `CCOC(=O)CC1COc2ccccc2N1C(=O)c1ccc(F)cc1` (stereo unspecified) here?
Its Potency is “inactive”.

With `OC(C#CCN1CCCC1)(c1ccccc1)c1cccc(F)c1` (stereo unspecified) as the compound, how does the Potency read?
Its Potency is inconclusive: 14.6 µM [cytotoxic, partial curve, poor fit].

For `CCOc1ccc(NC(=O)N2CCC(n3nnc4cc(C)ccc43)CC2)cc1`, which Potency is on record?
The Potency was inconclusive: 4.61 µM [cytotoxic, partial curve].

Which Potency does the source give for `COc1ccc(OC)c(C(Cc2ccnc3ccccc23)Cc2ccnc3ccccc23)c1` here?
Its Potency is “inactive”.

For `O=C(O)c1ccc(Oc2ccc([N+](=O)[O-])cc2)c([N+](=O)[O-])c1`, which Potency is on record?
The Potency was inconclusive: 23.1 µM [cytotoxic, single point].

Which Potency does the source give for `CC(=O)c1ccccc1OC(=O)c1ccc([N+](=O)[O-])o1` here?
The Potency was inconclusive: 29.1 µM [rising, single point].

For `NC(=O)C1=C[C@@H](c2ccc(Br)cc2)C[C@@H](OCCCCO)O1`, which Potency is on record?
Its Potency is inconclusive: 29.1 µM [rising, single point].

Which Potency does the source give for `Cc1ccc(/C=N/NC(=O)c2ccoc2C)o1` here?
The Potency was inconclusive: 16.4 µM [rising, single point].

Which Potency does the source give for `Cc1cccc(NC(=O)C2CCN(S(=O)(=O)c3ccc4c(c3)CCCN4C(=O)C3CCC3)CC2)c1` here?
Its Potency is “inactive”.

With `CCCCCCC1(C)NC(c2ccc3c(c2)OCO3)=CC(c2ccccc2O)N1` (stereo unspecified) as the compound, how does the Potency read?
Its Potency is “inactive”.

For `Cc1csc(NC(=O)CSc2nc(C)nc3c2c(=O)n(C)c(=O)n3C)n1`, which Potency is on record?
The Potency was “inactive”.

For `COCCn1c(SCC(=O)Nc2ccc(F)cc2F)nc2c([nH]c3ccccc32)c1=O`, which Potency is on record?
The Potency was inconclusive: 1.16 µM [cytotoxic, partial curve, poor fit].

With `CCOCCCNC(=S)N(CCCN(C)C)Cc1cc2cc3c(cc2[nH]c1=O)OCCO3` as the compound, how does the Potency read?
Its Potency is inconclusive: 29.1 µM [rising, partial curve, poor fit].

With `COc1cccc(CN2C(=O)C(C)N(C(=O)c3ccccc3)c3ccccc32)c1` (stereo unspecified) as the compound, how does the Potency read?
Its Potency is inconclusive: 32.6 µM [cytotoxic, single point].

With `Cc1noc(C)c1COC(=O)C1CCN(C(=O)c2ccc(Cl)cc2)CC1` as the compound, how does the Potency read?
The Potency was inconclusive: 18.4 µM [cytotoxic, partial curve].

Which Potency does the source give for `Cc1cc(OCC(=O)N2CCC(c3nc4ccccc4s3)CC2)ccc1Cl` here?
The Potency was inconclusive: 29.1 µM [cytotoxic, single point].

With `NC(N)=Nc1nc(CSCC/C(N)=N/S(N)(=O)=O)cs1` as the compound, how does the Potency read?
The Potency was inconclusive: 0.366 µM [rising, full curve].

For `O=C(Nc1nc2c(s1)CN(Cc1ccccc1)CC2)C1CCCC1`, which Potency is on record?
Its Potency is inconclusive: 18.4 µM [cytotoxic, partial curve].

With `COc1cc(-c2cc(NC=O)c3ncc(-c4ccccc4)n3c2)cc(OC)c1OC` as the compound, how does the Potency read?
Its Potency is inconclusive: 8.2 µM [cytotoxic, partial curve, poor fit].

Which Potency does the source give for `Cc1cc([N+](=O)[O-])ccc1NC(=O)c1csc(C)c1C` here?
Its Potency is inconclusive: 29.1 µM [cytotoxic, single point].

With `CCCn1nnnc1NCc1ccccc1OCc1cccs1` as the compound, how does the Potency read?
The Potency was “inactive”.

For `COC(=O)/C=C1\SC(=NC(=O)c2ccc(OC)cc2)NC1=O`, which Potency is on record?
Its Potency is “inactive”.

For `CC1CN(C(=O)c2cccc(NS(=O)(=O)c3ccc(Br)cc3)c2)CC(C)O1` (stereo unspecified), which Potency is on record?
The Potency was “inactive”.

For `CNc1nc(Cl)c(SC)c(N2CCOCC2)n1`, which Potency is on record?
Its Potency is inconclusive: 5.8 µM [cytotoxic, full curve, poor fit].

With `Cc1ccc2[nH]c(=O)c(CN(Cc3ccccc3)C(=S)NCCCN(C)C)cc2c1` as the compound, how does the Potency read?
Its Potency is “inactive”.

Which Potency does the source give for `CCC(C)N(C(=O)COC(=O)c1nc2nc(C)cc(C)n2n1)C1CCS(=O)(=O)C1` (stereo unspecified) here?
The Potency was inconclusive: 3.66 µM [rising, full curve, poor fit].
